Results from the supplement of paper PMC3334620.
In all, about 33,000 sequences were measured (“E-score (-0.5 to 0.5)”: median about -0.0059, highest 2% from about 0.26 on). This is one part of the list.

Molecular target: T1, Cin5 (UniProt P40917)
T1 sequence: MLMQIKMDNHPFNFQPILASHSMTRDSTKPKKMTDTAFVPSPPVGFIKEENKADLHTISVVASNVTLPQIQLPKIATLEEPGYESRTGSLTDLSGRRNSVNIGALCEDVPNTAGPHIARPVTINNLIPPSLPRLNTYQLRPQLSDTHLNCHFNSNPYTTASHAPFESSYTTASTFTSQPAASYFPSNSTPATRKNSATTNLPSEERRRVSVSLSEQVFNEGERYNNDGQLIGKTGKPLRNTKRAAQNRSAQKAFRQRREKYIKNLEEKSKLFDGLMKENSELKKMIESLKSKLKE
Assay: PBM E-score (8-mer binding enrichment) (E-score (-0.5 to 0.5)); higher = stronger / more preferred TF binding
Conditions: protein concentration: 100 nM; construct: GST-full length
In short: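 Using PURExpress in vitro transcription/translation, GST-tagged yeast transcription factors were made in full-length or DNA-binding-domain form. These were applied at about 100-200 nM to double-stranded universal all-10-mer Agilent arrays, and bound protein was detected with fluorescent anti-GST. Scans were normalised with masliner before the Universal PBM Analysis Suite assigned E-scores to ungapped eight-base words pooled with their reverse complements.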

Sequence | PBM E-score
GTTATATA | 0.271
CCGCGCGA | 0.186
TGTACGAA | 0.0993
ATCAACTC | 0.0259
CTCGAGAC | 0.0883
CGGGGCGA | 0.106
AGTACGAT | 0.124
CAGTAGGC | -0.0123
AACCCAAG | 0.0519
AAGCGGCA | 0.149
GAAGCAAA | -0.00036
AAGTTGCA | 0.036
GGGGCCCC | -0.0592
CTTCCGAC | -0.206
GTTTCGTA | 0.194
ACCAACTC | -0.0248
ACGCCAGT | -0.13
CTTATACC | 0.122
AGTCTAAA | -0.071
CCAGAAAC | 0.0262
ACCTCCGT | -0.176
GTACGTTA | 0.159
CACTTAAC | 0.0141
ACAATCAG | 0.134
GGGTCTTA | -0.0273

Some of the entries so far, as a markdown table:

| Sequence | PBM E-score |
| --- | --- |
| GGGGCCCC | -0.0592 |
| CTTCCGAC | -0.206 |

Continuation.

Sequence | PBM E-score
CACGGCAC | -0.19
CTTGTGGC | -0.258
ATTATAAT | 0.265
TAGATTAA | 0.154
ACACTAAT | 0.149
CGGCTGTC | -0.11
CCCCTGTA | 0.0428
AACAATCC | 0.152
CAATCAAA | 0.151
AGACTCTA | -0.177
CCCGGCTC | -0.287
CGAGCGTC | -0.163
CCTTCGAA | -0.116
ATTATTGC | 0.22
CCGCCCGC | 0.116
CCTTGTAA | 0.0736
AAGCCTCG | 0.0374
GATCAGAC | -0.0282
ACACCATG | 0.0111
CCAAACAA | 0.0879
ACGAATAC | 0.224
AATACGGC | 0.146
AGTTGTGA | 0.0963
GGAAACAA | 0.0974
ATTCCTTC | 0.155

Sequence | PBM E-score
GAGATATA | 0.0101
GCAGGAGC | -0.285
CACGTCGC | -0.119
ATCCACAA | 0.0817
ACGGCAGT | -0.191
CAGCTGAC | 0.154
CACACTCG | 0.22
CTATCGGC | -0.0472
CGTTGTGC | -0.0586
AAGGCGAC | -0.147
GAGGCACA | -0.133
AGGAGGCG | -0.133
TAAGCGTA | 0.126
CGCGGTTC | 0.0646
AGGGGCTC | -0.243
GCCCAGTA | -0.0745
TACCCTCA | -0.00847
AAGGTACC | -0.18
GTTACAAA | 0.184
CCAGCGCA | -0.132
CCTCTTCC | -0.159
ACTTGTAC | 0.00779
GACGAACC | -0.115
ATGGTAGC | -0.102
ACAGTGAG | -0.0526

Some of the entries above, reformatted.
Sequence	PBM E-score
ACGGCAGT	-0.191
CGTTGTGC	-0.0586
AGGAGGCG	-0.133
CGCGGTTC	0.0646
GCCCAGTA	-0.0745

Further results follow.

Sequence | PBM E-score
ACCGGCAC | -0.0555
CTTAGACC | -0.1
GCTCACTA | 0.00961
AATTACCT | 0.0437
CTTAGCTC | -0.106
GGGCATTA | -0.217
CCTTCCAC | -0.046
AAAATCTT | -0.0659
AGAGGGAG | -0.225
TGACCCCA | 0.019
AGTTAACG | 0.106
ACGGGCTG | -0.179
GGCTAGCC | -0.2
TCGGTAGA | -0.0323
CAGTCTAA | 0.171
GTCGTTTA | 0.0464
ACCCCAGT | 0.228
AGATGATG | 0.27
CTTCCATA | -0.201
CAGGAAGG | -0.315
CAGGTAGA | -0.0578
GGCCGTTA | 0.0315
GGGGGGCA | -0.427
AAAAATCG | -0.0511
AAGCTCCT | -0.226

Sequence | PBM E-score
AAACGGGA | 0.126
AAGTTCCG | 0.0869
GTGCAGGA | -0.0289
TACTGAGA | -0.0565
ACTTCTTA | 0.0563
GCCCCGAA | 0.106
CTATGATA | 0.116
CAGCTCTA | -0.0951
AAAGCAGG | -0.0862
GGTTGGTA | 0.0759
GCATCCCA | -0.194
CATGGGGG | -0.399
TGCCGGCA | 0.109
CAGCGCGA | -0.00789
GGAGTAAC | -0.0806
AGCGATCA | -0.052
CGCTACCG | -0.155
GGTCTCTA | -0.0547
AGCATAGC | -0.0747
CTGTGTGA | 0.142
CATTGCGG | -0.0746
AACGACCT | 0.0526
TTCATGAA | 0.0642
GCGTGTGA | -0.0649
CGCTTATC | 0.126

Sequence | PBM E-score
ACAACCTC | -0.0697
ACCCGTAG | -0.249
CAGGGGCG | -0.079
ATCGCAAG | 0.0365
GGTGTACA | -0.034
CTAAAGTA | -0.0582
AACGCCTC | -0.25
CCAGTAAC | -0.0821
ATTGCCGA | -0.0415
CTATATAG | 0.103
AGCCTGCA | -0.0216
CCAATTTA | 0.247
AGAATGGA | 0.111
CTTCCCCA | -0.116
ATAGGGTG | -0.109
GTTGGATA | 0.0096
TCATATCA | 0.0786
CCATCCAC | -0.0374
AACTGATC | 0.0762
CCGCAACG | -1e-05
ATTATCAA | 0.274
CCCATCGG | -0.0343
AGGCTCTA | -0.177
CTCCGACA | -0.117
ACTCTTGG | -0.182

Sequence | PBM E-score
TCAAGAGA | 0.0118
ATCGCTCC | -0.155
AGTCATCC | -0.0957
CATAAGGA | -0.0122
GCGCGTAC | 0.0346
CAGCCCGG | -0.0638
CAGGATCG | -0.113
AAAGAGAG | -0.082
ACTAGCGC | 0.00268
CCCGGAAA | 0.136
ACGACATC | -0.0616
CACTACCC | -0.0308
ACTGGCGA | -0.139
AATGGAAG | 0.0673
CTGCCGAA | -0.155
CCTGGAAG | -0.115
ACACCGAG | -0.0675
ACTAATCA | 0.264
CAATTTCG | 0.0631
AACGTATG | -0.0311
ACCACCCG | -0.101
TACGGGAA | -0.108
AGGAGTTA | 0.0637
CGGGAGAA | -0.0556
CAAGAGGG | -0.182

Sequence | PBM E-score
ATGGATGA | 0.172
AGGGCTAT | -0.157
ACCTAGTC | -0.113
TCACATCA | 0.0712
CCTCATGA | 0.00293
GACCACCC | -0.159
TACACGAA | 0.255
ATCCGTTG | 0.163
CCTATCCA | -0.159
ACCTTGAA | -0.0159
CCGGAGCC | -0.149
GCCTGGCC | -0.259
ATACGATA | 0.152
GACTATGC | 0.0131
AAGCCTTG | 0.062
ACGTAAGT | 0.25
AAATTACG | 0.171
ACGAACTG | 0.00518
AGGGATGC | -0.22
ACTATGAC | 0.074
ATTTGTCG | 0.186
AATGTATC | 0.243
CGCATGAA | 0.116
AGAAGAAC | 0.0478
CACACACA | 0.0837

Sequence | PBM E-score
AGGCACAT | 0.0447
AAACATCC | 0.0384
CTACACGA | 0.0325
AACATGAG | -0.0568
ATGGCAAA | 0.0101
CTAACTAG | 0.0958
CCTGCGAA | -0.104
GCGTCGAA | 0.0713
CAGCAGAA | -0.0607
CCCATCCC | -0.0944
TCCCGTCA | -0.00679
CTCCACAG | -0.225
CGCGATGA | 0.199
AATCGAGG | 0.154
AATGTCTG | -0.0309
AAAACCGA | 0.154
AGCAGGGA | -0.105
ATTAATCA | 0.263
CCTGAAGA | -0.0745

Part of the list above, tab-delimited.
Sequence	PBM E-score
GTTTCGTA	0.194
TAGATTAA	0.154
CTTAGACC	-0.1
AAGTTCCG	0.0869
CTGTGTGA	0.142
GTTGGATA	0.0096
AGGCACAT	0.0447
